± gives the standard deviation of the averaged measurements. The list shows a part of the results, in another mix than the full data.
Compound: Nc1ncnc2c1ncn2[C@@H]1O[C@H](COP(=O)(O)OP(=O)(O)NP(=O)(O)O)[C@@H](O)[C@H]1O [adenylyl imidodiphosphate]
Test: NP40-soluble protein abundance relative to vehicle (solubility fold change) (ratio); higher = more soluble protein in presence of AMP-PNP
How it was run: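 Eight concentrations, 0.1 to 10 mM, were tested on Jurkat crude lysate for 10 min at room temperature and then 3 min at 37 °C, in three independent experiments. The lysate was solubilised with 0.8% NP40 and benzonase, ultracentrifuged, and the supernatant TMT-labelled for LC-MS/MS. Each value is the fold change against the detergent-processed vehicle in its own replicate, from vsn-normalised intensities.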

The chains behind the UniProt entries cited, without tags or fusion partners. Where a name states a change or a piece, a line headed by the entry shows the natural chain unless it says otherwise.
UniProt Q9H3N1: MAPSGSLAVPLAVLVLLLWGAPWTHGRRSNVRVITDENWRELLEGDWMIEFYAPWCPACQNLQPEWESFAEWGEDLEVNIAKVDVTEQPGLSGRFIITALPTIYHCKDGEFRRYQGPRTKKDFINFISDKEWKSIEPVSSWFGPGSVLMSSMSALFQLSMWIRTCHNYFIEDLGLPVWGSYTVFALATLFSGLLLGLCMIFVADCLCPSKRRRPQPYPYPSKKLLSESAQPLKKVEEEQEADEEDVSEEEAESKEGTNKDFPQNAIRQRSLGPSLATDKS
UniProt Q9NPF5, whole entry: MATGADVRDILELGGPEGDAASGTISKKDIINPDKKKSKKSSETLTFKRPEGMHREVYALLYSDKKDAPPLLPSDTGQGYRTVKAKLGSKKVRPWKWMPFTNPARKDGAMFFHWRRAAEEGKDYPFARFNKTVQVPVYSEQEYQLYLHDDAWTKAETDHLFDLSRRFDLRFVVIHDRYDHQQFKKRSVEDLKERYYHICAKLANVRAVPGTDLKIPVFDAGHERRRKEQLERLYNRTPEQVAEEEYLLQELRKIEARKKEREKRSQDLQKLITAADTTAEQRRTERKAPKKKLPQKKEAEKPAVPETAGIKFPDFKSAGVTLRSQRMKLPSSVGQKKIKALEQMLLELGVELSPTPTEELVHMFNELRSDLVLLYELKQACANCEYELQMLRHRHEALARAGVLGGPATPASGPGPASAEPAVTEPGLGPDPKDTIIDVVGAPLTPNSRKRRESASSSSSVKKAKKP
UniProt Q9HB71, whole entry: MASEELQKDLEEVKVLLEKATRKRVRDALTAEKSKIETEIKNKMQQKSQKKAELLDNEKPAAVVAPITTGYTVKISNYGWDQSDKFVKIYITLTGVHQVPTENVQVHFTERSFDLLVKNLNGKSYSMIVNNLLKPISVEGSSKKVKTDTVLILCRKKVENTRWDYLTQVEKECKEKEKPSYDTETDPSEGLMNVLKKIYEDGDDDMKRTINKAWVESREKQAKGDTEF
UniProt Q9H0R6: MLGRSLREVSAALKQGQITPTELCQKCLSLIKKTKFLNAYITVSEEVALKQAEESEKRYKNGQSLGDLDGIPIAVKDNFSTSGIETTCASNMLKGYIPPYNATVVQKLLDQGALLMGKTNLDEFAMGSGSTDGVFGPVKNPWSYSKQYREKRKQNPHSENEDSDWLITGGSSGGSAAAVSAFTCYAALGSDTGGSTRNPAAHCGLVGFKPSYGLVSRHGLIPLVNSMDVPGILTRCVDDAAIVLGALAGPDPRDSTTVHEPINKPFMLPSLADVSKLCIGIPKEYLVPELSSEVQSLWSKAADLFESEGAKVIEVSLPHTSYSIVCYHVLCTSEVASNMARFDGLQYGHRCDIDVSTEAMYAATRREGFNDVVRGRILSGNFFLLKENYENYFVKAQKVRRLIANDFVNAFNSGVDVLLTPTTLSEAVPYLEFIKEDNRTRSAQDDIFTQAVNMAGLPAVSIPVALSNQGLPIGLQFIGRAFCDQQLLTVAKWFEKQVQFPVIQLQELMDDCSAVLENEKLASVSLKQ
UniProt Q9NPA3, whole entry: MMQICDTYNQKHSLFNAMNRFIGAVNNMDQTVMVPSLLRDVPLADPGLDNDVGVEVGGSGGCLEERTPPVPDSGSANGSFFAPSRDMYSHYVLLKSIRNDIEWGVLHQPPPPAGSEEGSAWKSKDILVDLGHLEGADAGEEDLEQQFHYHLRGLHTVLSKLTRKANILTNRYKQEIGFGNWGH
UniProt Q9H583: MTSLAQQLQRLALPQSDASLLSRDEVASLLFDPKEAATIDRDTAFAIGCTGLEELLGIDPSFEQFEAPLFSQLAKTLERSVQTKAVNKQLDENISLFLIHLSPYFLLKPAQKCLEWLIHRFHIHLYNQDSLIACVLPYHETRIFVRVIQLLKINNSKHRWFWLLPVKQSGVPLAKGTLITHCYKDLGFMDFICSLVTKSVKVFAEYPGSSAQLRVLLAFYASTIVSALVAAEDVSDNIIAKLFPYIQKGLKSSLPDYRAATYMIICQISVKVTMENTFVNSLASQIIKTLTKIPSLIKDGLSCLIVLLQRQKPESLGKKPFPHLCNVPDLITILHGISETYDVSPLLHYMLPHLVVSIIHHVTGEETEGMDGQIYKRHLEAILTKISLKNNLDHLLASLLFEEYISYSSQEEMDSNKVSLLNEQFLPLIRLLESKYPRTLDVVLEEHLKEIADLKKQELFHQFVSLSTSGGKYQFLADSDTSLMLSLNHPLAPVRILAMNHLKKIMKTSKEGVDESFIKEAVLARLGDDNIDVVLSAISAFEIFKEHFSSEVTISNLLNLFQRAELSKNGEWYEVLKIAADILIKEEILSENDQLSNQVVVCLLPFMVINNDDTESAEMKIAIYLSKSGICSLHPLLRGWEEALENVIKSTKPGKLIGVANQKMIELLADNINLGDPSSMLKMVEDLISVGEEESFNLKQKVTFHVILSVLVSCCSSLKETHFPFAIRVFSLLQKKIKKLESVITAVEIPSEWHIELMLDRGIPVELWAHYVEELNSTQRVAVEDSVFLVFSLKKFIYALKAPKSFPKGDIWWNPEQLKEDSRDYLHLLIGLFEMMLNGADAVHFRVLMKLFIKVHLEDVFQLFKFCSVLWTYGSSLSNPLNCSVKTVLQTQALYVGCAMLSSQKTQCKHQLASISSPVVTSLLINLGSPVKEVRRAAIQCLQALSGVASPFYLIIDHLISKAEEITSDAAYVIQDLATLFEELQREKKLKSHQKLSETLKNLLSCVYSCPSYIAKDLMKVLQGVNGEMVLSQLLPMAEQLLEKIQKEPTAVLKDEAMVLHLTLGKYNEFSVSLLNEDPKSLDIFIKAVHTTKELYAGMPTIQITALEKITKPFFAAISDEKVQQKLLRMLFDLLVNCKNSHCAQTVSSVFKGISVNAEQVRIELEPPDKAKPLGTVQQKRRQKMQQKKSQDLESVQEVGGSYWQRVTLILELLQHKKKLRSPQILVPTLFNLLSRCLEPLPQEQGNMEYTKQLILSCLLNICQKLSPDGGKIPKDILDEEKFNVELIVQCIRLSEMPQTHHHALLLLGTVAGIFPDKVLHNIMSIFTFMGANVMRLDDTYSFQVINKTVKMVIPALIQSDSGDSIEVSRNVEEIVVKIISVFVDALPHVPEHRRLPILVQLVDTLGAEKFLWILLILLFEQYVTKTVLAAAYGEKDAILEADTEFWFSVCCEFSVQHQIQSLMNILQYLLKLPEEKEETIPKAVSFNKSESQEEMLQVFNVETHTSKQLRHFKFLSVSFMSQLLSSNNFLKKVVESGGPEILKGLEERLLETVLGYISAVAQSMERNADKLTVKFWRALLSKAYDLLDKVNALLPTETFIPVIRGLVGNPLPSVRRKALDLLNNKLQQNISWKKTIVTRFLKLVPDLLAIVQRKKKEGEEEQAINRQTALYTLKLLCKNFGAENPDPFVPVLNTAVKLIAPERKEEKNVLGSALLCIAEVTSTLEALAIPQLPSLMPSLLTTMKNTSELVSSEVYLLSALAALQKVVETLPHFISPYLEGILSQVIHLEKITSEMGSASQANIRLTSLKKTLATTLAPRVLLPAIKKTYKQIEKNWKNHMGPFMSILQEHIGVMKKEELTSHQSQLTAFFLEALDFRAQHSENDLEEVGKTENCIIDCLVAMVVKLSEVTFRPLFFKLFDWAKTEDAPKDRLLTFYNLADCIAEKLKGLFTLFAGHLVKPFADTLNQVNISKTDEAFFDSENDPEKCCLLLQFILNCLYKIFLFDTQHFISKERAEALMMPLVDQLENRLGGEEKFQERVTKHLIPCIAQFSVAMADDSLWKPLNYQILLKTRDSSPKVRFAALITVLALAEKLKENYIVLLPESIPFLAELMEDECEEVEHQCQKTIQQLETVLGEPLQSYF
UniProt Q9HCG8: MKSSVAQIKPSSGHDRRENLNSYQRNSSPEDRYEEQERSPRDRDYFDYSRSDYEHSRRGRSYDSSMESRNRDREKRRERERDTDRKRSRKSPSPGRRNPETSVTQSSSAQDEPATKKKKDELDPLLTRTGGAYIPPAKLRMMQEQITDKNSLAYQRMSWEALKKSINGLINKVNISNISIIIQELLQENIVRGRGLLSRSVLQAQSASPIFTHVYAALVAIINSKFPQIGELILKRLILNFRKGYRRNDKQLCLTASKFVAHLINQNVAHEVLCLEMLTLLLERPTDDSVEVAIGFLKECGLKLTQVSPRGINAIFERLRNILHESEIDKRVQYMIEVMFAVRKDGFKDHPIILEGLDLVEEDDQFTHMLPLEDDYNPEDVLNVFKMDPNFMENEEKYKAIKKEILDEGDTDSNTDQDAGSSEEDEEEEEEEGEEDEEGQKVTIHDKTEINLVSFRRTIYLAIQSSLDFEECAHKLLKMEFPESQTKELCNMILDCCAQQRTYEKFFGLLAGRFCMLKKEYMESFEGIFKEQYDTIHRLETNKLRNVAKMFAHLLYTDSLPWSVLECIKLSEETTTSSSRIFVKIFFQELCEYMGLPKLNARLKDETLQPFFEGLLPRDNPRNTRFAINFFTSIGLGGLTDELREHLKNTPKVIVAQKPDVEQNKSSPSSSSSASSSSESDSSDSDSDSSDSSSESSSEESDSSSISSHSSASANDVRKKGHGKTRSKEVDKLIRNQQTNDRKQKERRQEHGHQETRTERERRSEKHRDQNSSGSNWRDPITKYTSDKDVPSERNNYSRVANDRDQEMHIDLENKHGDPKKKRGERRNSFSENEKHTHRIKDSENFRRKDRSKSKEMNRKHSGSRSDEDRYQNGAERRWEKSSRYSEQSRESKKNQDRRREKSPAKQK
UniProt Q9H6D7: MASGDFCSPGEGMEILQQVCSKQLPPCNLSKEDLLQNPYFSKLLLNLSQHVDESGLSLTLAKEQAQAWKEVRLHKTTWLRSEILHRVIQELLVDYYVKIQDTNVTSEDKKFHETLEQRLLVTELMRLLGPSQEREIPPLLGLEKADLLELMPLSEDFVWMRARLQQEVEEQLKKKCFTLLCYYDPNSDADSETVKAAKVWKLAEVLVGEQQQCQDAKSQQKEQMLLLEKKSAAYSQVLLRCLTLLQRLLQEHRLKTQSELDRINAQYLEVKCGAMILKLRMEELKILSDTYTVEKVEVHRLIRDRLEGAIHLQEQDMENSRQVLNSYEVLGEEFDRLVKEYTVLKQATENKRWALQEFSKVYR
UniProt Q9BZE2: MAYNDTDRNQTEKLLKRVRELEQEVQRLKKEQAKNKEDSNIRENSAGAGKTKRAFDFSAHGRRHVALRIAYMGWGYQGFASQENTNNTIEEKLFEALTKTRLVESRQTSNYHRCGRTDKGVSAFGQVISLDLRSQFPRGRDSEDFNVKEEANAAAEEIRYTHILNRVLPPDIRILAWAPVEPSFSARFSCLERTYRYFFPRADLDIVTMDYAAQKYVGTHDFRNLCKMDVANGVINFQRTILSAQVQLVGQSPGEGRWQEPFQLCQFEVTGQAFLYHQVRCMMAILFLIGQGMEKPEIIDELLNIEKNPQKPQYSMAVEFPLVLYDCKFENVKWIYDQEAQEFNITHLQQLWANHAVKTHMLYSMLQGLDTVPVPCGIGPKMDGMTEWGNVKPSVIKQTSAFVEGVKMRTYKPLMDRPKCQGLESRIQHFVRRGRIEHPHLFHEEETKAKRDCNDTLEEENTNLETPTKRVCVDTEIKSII
UniProt Q9C0C4, whole entry: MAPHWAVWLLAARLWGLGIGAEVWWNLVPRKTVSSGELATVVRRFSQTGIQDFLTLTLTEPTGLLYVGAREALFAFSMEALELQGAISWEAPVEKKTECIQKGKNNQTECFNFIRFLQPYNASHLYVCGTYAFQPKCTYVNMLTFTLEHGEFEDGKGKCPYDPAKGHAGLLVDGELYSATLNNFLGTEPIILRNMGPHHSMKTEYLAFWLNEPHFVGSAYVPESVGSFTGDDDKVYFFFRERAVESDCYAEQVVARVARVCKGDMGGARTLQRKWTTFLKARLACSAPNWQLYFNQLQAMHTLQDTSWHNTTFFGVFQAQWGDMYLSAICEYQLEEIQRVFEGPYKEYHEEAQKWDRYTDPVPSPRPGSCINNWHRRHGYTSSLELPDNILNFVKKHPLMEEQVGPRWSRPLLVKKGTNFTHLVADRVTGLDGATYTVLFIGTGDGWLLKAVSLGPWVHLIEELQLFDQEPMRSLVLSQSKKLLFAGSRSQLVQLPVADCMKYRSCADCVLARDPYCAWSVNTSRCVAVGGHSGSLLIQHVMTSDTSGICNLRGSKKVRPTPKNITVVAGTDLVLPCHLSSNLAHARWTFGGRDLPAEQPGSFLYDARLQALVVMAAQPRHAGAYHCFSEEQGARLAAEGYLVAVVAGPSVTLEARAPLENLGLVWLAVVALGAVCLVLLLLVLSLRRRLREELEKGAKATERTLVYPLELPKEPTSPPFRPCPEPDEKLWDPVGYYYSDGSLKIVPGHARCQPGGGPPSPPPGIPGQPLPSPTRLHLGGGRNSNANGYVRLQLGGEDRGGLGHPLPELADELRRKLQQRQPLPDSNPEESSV

Row | Target | NP40-soluble protein abundance (concentration: 1mM) | NP40-soluble protein abundance (concentration: 2mM) | NP40-soluble protein abundance (concentration: 4mM) | NP40-soluble protein abundance (concentration: 6mM) | NP40-soluble protein abundance (concentration: 8mM) | NP40-soluble protein abundance (concentration: 10mM)
1 | LSG1 (UniProt Q9H089) | 0.993 ± 0.019 | 0.975 ± 0.033 | 0.987 ± 0.017 | 0.926 ± 0.03 | 0.927 ± 0.034 | 0.924 ± 0.013
2 | UniProt Q9H3N1 | 0.997 ± 0.022 | 1.01 ± 0.023 | 0.968 ± 0.011 | 0.953 ± 0.014 | 0.945 ± 0.028 | 0.9607 ± 0.0085
3 | UniProt Q9H477 and related entries | 0.995 ± 0.035 | 0.9831 ± 0.0088 | 1 ± 0.029 | 0.998 ± 0.022 | 0.9762 ± 0.0079 | 0.9765 ± 0.0058
4 | UniProt Q9H7E2-3 | 1.06 ± 0.037 | 1.07 ± 0.029 | 1.066 ± 0.0091 | 1.052 ± 0.002 | 1.04 ± 0.035 | 1.07 ± 0.019
5 | UniProt Q9H8M5 and related entries | 0.993 ± 0.031 | 0.964 ± 0.033 | 0.9686 ± 0.0069 | 0.987 ± 0.039 | 0.972 ± 0.013 | 0.969 ± 0.025
6 | DMAP1 (UniProt Q9NPF5) | 1 ± 0.027 | 1.07 ± 0.028 | 1.02 ± 0.075 | 1.09 ± 0.09 | 1.05 ± 0.085 | 1.11 ± 0.092
7 | UniProt Q9H1P3 and related entries | 1.02 ± 0.017 | 1.02 ± 0.062 | 1.01 ± 0.025 | 0.993 ± 0.025 | 0.988 ± 0.04 | 0.99 ± 0.015
8 | CACYBP (UniProt Q9HB71) | 1.018 ± 0.0083 | 1.06 ± 0.076 | 0.975 ± 0.013 | 1.04 ± 0.0074 | 1.01 ± 0.032 | 1.03 ± 0.034
9 | QRSL1 (UniProt Q9H0R6) | 0.972 ± 0.024 | 1 ± 0.066 | 1.01 ± 0.046 | 0.996 ± 0.039 | 0.973 ± 0.038 | 0.987 ± 0.037
10 | UniProt Q9NPA3 | 1.01 ± 0.038 | 0.997 ± 0.035 | 1.01 ± 0.053 | 0.9782 ± 0.0094 | 0.975 ± 0.018 | 0.971 ± 0.042
11 | PDF (UniProt Q9HBH1) | 1.01 ± 0.023 | 0.973 ± 0.083 | 1.003 ± 0.0095 | 1 ± 0.049 | 0.993 ± 0.024 | 1.01 ± 0.036
12 | UniProt Q9H583 and related entries | 0.998 ± 0.028 | 0.964 ± 0.037 | 1.04 ± 0.0078 | 1.02 ± 0.024 | 1.05 ± 0.044 | 1.07 ± 0.02
13 | HMG20A (UniProt Q9NP66) | 0.999 ± 0.083 | 1.05 ± 0.014 | 1.03 ± 0.084 | 1.04 ± 0.026 | 1.1 ± 0.039 | 1.09 ± 0.037
14 | ZNF407 (UniProt Q9C0G0) | 0.976 ± 0.035 | 1 ± 0.045 | 1 ± 0.056 | 0.962 ± 0.051 | 0.961 ± 0.03 | 0.94 ± 0.025
15 | CWC22 (UniProt Q9HCG8) | 1.04 ± 0.043 | 1.09 ± 0.061 | 1.07 ± 0.05 | 1.05 ± 0.08 | 1.03 ± 0.059 | 1.09 ± 0.056
16 | UniProt Q9H6D7 | 1.007 ± 0.01 | 1.03 ± 0.016 | 1 ± 0.029 | 0.969 ± 0.028 | 0.9567 ± 0.0092 | 0.925 ± 0.043
17 | PUS3 (UniProt Q9BZE2) | 1.01 ± 0.013 | 0.997 ± 0.0053 | 1 ± 0.026 | 1.03 ± 0.054 | 0.978 ± 0.032 | 0.974 ± 0.019
18 | GTPBP4 (UniProt Q9BZE4) | 1.04 ± 0.061 | 1.03 ± 0.027 | 1.08 ± 0.059 | 1.07 ± 0.064 | 1.05 ± 0.054 | 1.09 ± 0.1
19 | UniProt Q9HCC0-2 | 0.993 ± 0.021 | 0.967 ± 0.015 | 0.961 ± 0.0066 | 0.963 ± 0.054 | 0.932 ± 0.021 | 0.955 ± 0.017
20 | SEMA4C (UniProt Q9C0C4) | 0.988 ± 0.016 | 0.998 ± 0.055 | 0.981 ± 0.013 | 0.988 ± 0.028 | 0.995 ± 0.023 | 0.9883 ± 0.0093

Part of the list above, tab-delimited:
Row	Target	NP40-soluble protein abundance (concentration: 1mM)	NP40-soluble protein abundance (concentration: 2mM)	NP40-soluble protein abundance (concentration: 4mM)	NP40-soluble protein abundance (concentration: 6mM)	NP40-soluble protein abundance (concentration: 8mM)	NP40-soluble protein abundance (concentration: 10mM)
2	UniProt Q9H3N1	0.997 ± 0.022	1.01 ± 0.023	0.968 ± 0.011	0.953 ± 0.014	0.945 ± 0.028	0.9607 ± 0.0085
3	UniProt Q9H477 and related entries	0.995 ± 0.035	0.9831 ± 0.0088	1 ± 0.029	0.998 ± 0.022	0.9762 ± 0.0079	0.9765 ± 0.0058

From the supplement of paper PMC6411743
